Results: patent US7279474B2, “Substituted pyrrolo[2,3-d]pyrimidines as antagonists of the corticotropin releasing factor (CRF)” (Glaxo Group Limited, priority 2001, dated 2007)
pKi: −log10 of the molar value. Some results were stated once for a whole list of compounds, not compound by compound.

Target: T1, recombinant human CRF receptors (Homo sapiens, UniProt P34998)
T1 sequence (P34998 24-415): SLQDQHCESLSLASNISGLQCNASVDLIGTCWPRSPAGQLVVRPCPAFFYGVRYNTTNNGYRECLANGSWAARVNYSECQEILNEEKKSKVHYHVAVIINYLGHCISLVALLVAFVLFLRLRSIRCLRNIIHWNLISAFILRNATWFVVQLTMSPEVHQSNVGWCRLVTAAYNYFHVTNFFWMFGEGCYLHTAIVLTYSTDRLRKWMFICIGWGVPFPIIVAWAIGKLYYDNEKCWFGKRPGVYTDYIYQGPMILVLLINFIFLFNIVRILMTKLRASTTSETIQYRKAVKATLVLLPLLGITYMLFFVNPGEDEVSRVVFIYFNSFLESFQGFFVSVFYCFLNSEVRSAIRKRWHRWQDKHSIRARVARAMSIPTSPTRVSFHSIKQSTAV
Experiment: CRF receptors-binding assay by scintillation proximity (SPA)
Conditions: CRF receptor binding affinity, methods of Example 5; receptor subtype (CRF1 or CRF2) not stated

“7-(2,4-Dichlorophenyl)-4-(3,5-dimethylpyrazol-1-yl)-2-methyl-6,7-dihydro-5H-pyrrolo[2,3-d]pyrimidine [Compound 1-10-11]” was tested, and the pKi was greater than 6.00.

For “7-(2,4-Dichlorophenyl)-4-(5-isopropyl-3-trifluoromethylpyrazol-1-yl)-2-methyl-6,7-dihydro-5H-pyrrolo[2,3-d]pyrimidine and 7-(2,4-Dichlorophenyl)-4-(3-isopropyl-5-trifluoromethyl-pyrazol-1-yl)-2-methyl-6,7-dihydro-5H-pyrrolo[2,3-d]pyrimidine [Compound 1-10-7]”, the pKi was greater than 7.00.

Work on “[7-(2-Bromo-4-isopropylphenyl)-2-methyl-6,7-dihydro-5H-pyrrolo[2,3-d]pyrimidin-4-yl]-cyclopropylmethylpropylamine [Compound 1-4-3]” yielded a pKi greater than 7.00.
